Reference: the supplement of paper PMC12764529
± gives the half width of the 95% confidence interval. For many entries, trypsin and chymotrypsin gave values far apart.

Key:
[1] = folding stability dG unfold from trypsin proteolysis; higher = more stable
How it was run: (§1)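 Unfolding free energy was derived, per protease or combined, by relating Bayesian-fitted K50 values from sequencing counts to a sequence-predicted unfolded-state K50 and a shared folded-state K50. The underlying digests exposed cysteine-free mini-proteins under 80 residues, in a PA-tagged cDNA display construct, to trypsin and chymotrypsin at 11 threefold-diluted concentrations and to a no-protease condition. A filter kept only designs with AlphaFold2 dimer inter-PAE above 15.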

[2] = folding stability dG unfold from chymotrypsin proteolysis; higher = more stable
How it was run: as §1

[3] = folding stability dG unfold (combined trypsin and chymotrypsin); higher = more stable
How it was run: as §1

Row | Sequence | folding stability dG unfold [1] | folding stability dG unfold [2] | folding stability dG unfold [3]
1 | SAMTEEEKKKKKEEEEKKKRELKIIVVAKTKDGKWKKIAEFTVKNKDMSIEELVKKLKDLGVEEVKIFPSAG [r14_318_TrROS_Hall] | 1.8 ± 0.082 kcal/mol | 3.09 ± 0.093 kcal/mol | 2.67 ± 0.26 kcal/mol
2 | SAALTLPDGTVVPTGDVTFVPGTNTLVVTLPSGTVTLPLPPDWTVEFDAETNLLTVRPLPGPSPALAALPSA [r9_551_JUSTAS] | 0.112 ± 0.15 kcal/mol | 2.13 ± 0.042 kcal/mol | 1.89 ± 0.14 kcal/mol
3 | SAGGSAGGSAGGKKEELAKKLAEELEKKGVKPVKVEVVDGKIYITLKNGKKIEIKIEKKSAGGSAGGSAGGS [r10_169_TrROS_Hall] | 1.86 ± 0.11 kcal/mol | 4.03 ± 0.16 kcal/mol | 3.43 ± 0.39 kcal/mol
4 | SAGGKLKTKIELFKGDDKEIIKSEHPDGGIGIADDDGEISEIIFFPDSGLVVVKLKNGKVVVLKAPKSAGGS [r16_602_TrMRF] | 0.434 ± 0.11 kcal/mol | 2.43 ± 0.11 kcal/mol | 1.85 ± 0.25 kcal/mol
5 | SAGGSAGGSGVTIPIWYKMDPGQPVPTAEEIQNIINELGFPIKDIKVQYHPDNGYVRAEITVKSAGGSAGGS [r12_1052_TrROS] | 1.25 ± 0.048 kcal/mol | 0.828 ± 0.088 kcal/mol | 1.11 ± 0.17 kcal/mol
6 | SAGGSAGGSAKMTAEELAKKLAEELEKKTGLKVKKVTVEYDKETNKVTITVEVDGKTYTIELSAGGSAGGSA [r18_145_TrROS_Hall] | 2.07 ± 0.13 kcal/mol | 4.31 ± 0.14 kcal/mol | 3.92 ± 0.18 kcal/mol
7 | SAGGSAGGMTVTLPLDEIEALAKAGLIEEVRIERDENGLLRVTLRVRPPPPLSAEQLAELRKKASAGGSAGG [r6_278_TrROS_Hall] | 1.26 ± 0.083 kcal/mol | 3.6 ± 0.21 kcal/mol | 2.1 ± 0.33 kcal/mol
8 | SAGGSAGGSTTLTLELPEGRAVVYLTPRPDSWTAKIEFEDPELTLEVEITSLTPPGLDLVNIVKSAGGSAGG [r6_984_JUSTAS] | 1.61 ± 0.055 kcal/mol | 3.67 ± 0.1 kcal/mol | 2.92 ± 0.18 kcal/mol
9 | SAGGSAGGSKKPPIYKIEIEIDGKKLTIEAKSKEEALKALKEELKKKYPNLKITKIKIEKVKPSAGGSAGGS [r12_429_TrROS_Hall] | 1.52 ± 0.088 kcal/mol | 2.4 ± 0.14 kcal/mol | 2.14 ± 0.15 kcal/mol
10 | SAGGSAMTLTLKVEVKVKVEVTNEDGSKFTVEKKVTVTVTVEVKKVYLTEEQLKDEEKLKKLLEKLSAGGSA [r15_728_TrROS_Hall] | 1.73 ± 0.13 kcal/mol | 3.85 ± 0.12 kcal/mol | 3.2 ± 0.36 kcal/mol
11 | SAPLLERLKELFPDAEIEVVEVEEVREVPPGRRVVRLTVRVRLPDGRVLRVELELRDGELVLRIELLPRSAG [r14_28_TrROS_Hall] | 1.83 ± 0.049 kcal/mol | 4.94 ± 0.089 kcal/mol | 4.36 ± 0.15 kcal/mol
12 | SAGGKKTLYIKLKIKIKNKKDPNKEYEFTILLKVEIEKDKKTNKYTLKAEATIFYNGKLYKITLELPSAGGS [r16_300_TrROS_Hall] | 3.57 ± 0.21 kcal/mol | 5.76 ± 0.1 kcal/mol | 5.51 ± 0.22 kcal/mol
13 | SAGGSAGGSAGGSMPTYRITVEVDGKKYTITVREGMSPEEIAKRLKELYPNLTVKIEPVSAGGSAGGSAGGS [r4_155_TrROS_Hall] | 3.75 ± 0.13 kcal/mol | 4.07 ± 0.15 kcal/mol | 4.04 ± 0.13 kcal/mol
14 | SAGGSAGLRVRLADGSELSVSPIPDKLRVVVTLPNGARIPIDVEDGELVEIVRDPAVPADFYIEEISAGGSA [r15_709_JUSTAS] | 0.419 ± 0.14 kcal/mol | 1.25 ± 0.043 kcal/mol | 1.06 ± 0.1 kcal/mol
15 | SMGYLKIKLKLVFVFPENDPSKKMPIKELIKKIAEELGIEAKIPSFSLLEKDPEKGIYRVEADVEIIIPGSA [r9_107_TrMRF] | 2.56 ± 0.15 kcal/mol | 4.66 ± 0.13 kcal/mol | 3.67 ± 0.41 kcal/mol
16 | SAGGYIPASARIEVLEVFEDGTVRVRVTYPDGSEAEVVARLVRTADGRVYLEIFDPRTGRLLATLELTSAGG [r13_527_TrMRF] | 4.09 ± 0.09 kcal/mol | 3.81 ± 0.054 kcal/mol | 3.88 ± 0.092 kcal/mol
17 | SAGSEIVEEILKELGVPESYEVVEVKEEVFEFPDSIKYKITVTIKDPSSTKTKTITVEIEIPVPDPKLESAG [r5_94_JUSTAS] | 1.97 ± 0.12 kcal/mol | 4.54 ± 0.087 kcal/mol | 4.25 ± 0.15 kcal/mol
18 | SAGGSAGGSAGPKTIVLPTPGGDAEKIVEAALDVVEAFPGLKDKEVDVDAGDDGVITITASAGGSAGGSAGG [r17_324_TrMRF] | -0.569 ± 0.24 kcal/mol | 1.65 ± 0.074 kcal/mol | 1.1 ± 0.12 kcal/mol

Single entries from the results shown:
Entry for SAGGSAGGSGVTIPIWYKMDPGQPVPTAEEIQNIINELGFPIKDIKVQYHPDNGYVRAEITVKSAGGSAGGS [r12_1052_TrROS] under folding stability dG unfold [1]: 1.25 ± 0.048 kcal/mol
Entry for SAGGSAGGMTVTLPLDEIEALAKAGLIEEVRIERDENGLLRVTLRVRPPPPLSAEQLAELRKKASAGGSAGG [r6_278_TrROS_Hall] under folding stability dG unfold [3]: 2.1 ± 0.33 kcal/mol
